# Test results as given in PubChem BioAssay AID1259415 (National Center for Advancing Translational Sciences (NCATS), 2018).
# Out of some 410,000 compounds screened, about 18,000 (4.4%) were called active. The shares of active, inactive and inconclusive entries below differ from those in the screen. Cut-off read from the data, not from the text of the source: active = activity change below about -60%; inconclusive = no clear call, values can overlap the other calls; inactive = above about -39%.
# Assay: qHTS Assay for inhibitors of the human cytomegalovirus (HCMV)
# Settings: HFF cells, HCMV-luciferase reporter, 72 h; at 57.5 µM; hits give low values
# Summary of the method: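 After 16 h attachment at 37C, HFF cells received test compound and HCMV-luciferase (1 PFU/cell); reporter luminescence read 72 h later, data normalized against buffer-only and known inhibitor Salinomycin.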
# % is set by controls: 0 for no effect and ±100 for the full control effect.
row,SMILES,"activity change, negative = inhibition"
1,CCOc1ccc(CN(C)C(=O)c2ccc(S(=O)(=O)N(C)c3ccccc3OC)cc2)cc1,inconclusive: -47.7%
2,COc1cc(COCC(O)CN2CCN(CCN3C(=O)c4cccc5cccc(c45)C3=O)CC2)cc(OC)c1OC (stereo not drawn),active: -75.5%
3,COc1ccc(Nc2nccc3c2cc(-c2ccccc2OC)n3C)cc1,active: -67.2%
4,O=C(Nc1nc2c(F)cccc2s1)c1ccc2c(c1)OCCO2,inconclusive: -46.1%
5,COc1ccc(CC(C)Nc2cccc(SC)c2)cc1 (stereo not drawn),inactive: 43%
6,Cc1ccc(CNC(=O)Cn2c(-c3cccs3)cc3cc(Cl)ccc32)cc1,inactive: -15.6%
7,CCCC[C@H]1COCCS(=O)(=O)N1Cc1cccc(F)c1,inconclusive: -40.5%
8,N#C/C(=C/c1ccc(N2CCOCC2)o1)C(=O)NC1CCCCC1,inconclusive: -52.6%
9,CCc1c(C)nc2c(-c3ccccc3)c(C)nn2c1Nc1ccc(NC(C)=O)cc1,active: -66.5%
10,CCc1ccccc1NC(=O)c1ccc(F)c(S(=O)(=O)N2CCN(c3ccccc3OC)CC2)c1,active: -62.4%
11,COc1ccc(/C=C/c2onc(C)c2S(=O)(=O)N2CCC(C(=O)N3CCCCCC3)CC2)cc1,active: -69%
12,COc1ccc(NC(=O)N(C)C[C@H]2OCc3cnnn3CCCC(=O)N([C@@H](C)CO)C[C@H]2C)cc1,inactive: -4.41%
13,CC(Oc1cc2oc(=O)c3c(c2cc1Cl)CCCC3)C(=O)NCC1CCC(C(=O)O)CC1 (stereo not drawn),inconclusive: -45.3%
14,COc1ccccc1CC(=O)Nc1ccc(NC(=O)c2cccs2)cc1,inactive: -30.6%
15,Cc1ccc(NC(=O)CC(c2ccc(F)cc2)N2Cc3ccccc3C2=O)cc1C (stereo not drawn),inconclusive: -41.4%
16,CCc1cc(SC#N)cc(C)c1NC(=O)CCl,active: -96.1%
17,NC(Cc1ccc(C(F)(F)F)cc1)c1csc(Nc2ccc(C(=O)NCc3ccco3)cn2)n1 (stereo not drawn),inconclusive: -43.7%
18,COC(=O)C1=C(c2ccccc2OCc2ccccc2)C[C@@H]2CC[C@H]1N2C(=O)NCCOc1ccccc1Cl,active: -72.9%
19,COc1cc(CN(C2CCCCC2C)S(=O)(=O)c2ccc(S(=O)(=O)NC3CC3)cc2)cc(OC)c1OC (stereo not drawn),inactive: -20.4%
20,CCc1ccc(NC2=NCCCS2)cc1,inconclusive: -51.4%
21,COc1ccc(/C=C/c2nc3ccccc3c(=O)o2)cc1,active: -94.9%
22,Cc1ccn2c(Nc3ccc(C(C)C)cc3)c(-c3cccnc3)nc2c1,inconclusive: -52.4%

row,SMILES,"activity change, negative = inhibition"
1,Brc1cccc(CN2CCN(c3ncccn3)CC2)c1,inconclusive: -47.5%
2,O=C1NC(=O)/C(=C\c2ccccc2OCc2ccc([N+](=O)[O-])cc2)N1,inconclusive: -46.7%
3,COc1ccc(CNC(=O)C(c2ccc(C)cc2)N(Cc2cccs2)C(=O)c2ccc3c(c2)OCCO3)cc1 (stereo not drawn),inconclusive: -50.3%
4,CCCCCOc1ccc(CSC(=N)N)cc1[N+](=O)[O-],inactive: 0.771%
5,CC(C)CNC(=O)[C@H]1N2C(=O)c3ccccc3C2SC1(C)C (stereo partly drawn),inconclusive: -43.2%
6,Cc1ccc(CNC(=O)CCCCCNc2nc(=S)[nH]c3ccccc23)cc1,inconclusive: -40.9%
7,COCCN(CCOC)S(=O)(=O)c1ccc(C(=O)Nc2nc3c(s2)CCc2ccccc2-3)cc1,active: -63.9%
8,Cc1cc(C(=O)N/N=C/c2ccc(-c3ccccc3Cl)o2)n[nH]1,inconclusive: -50.2%
9,Cc1ccc(NC(=O)CCSc2nnc(Cc3ccccc3)o2)cc1,inconclusive: -42.2%
10,Cc1nnc(SCc2ccc(F)cc2Cl)s1,inactive: 21.9%
11,COC(=O)c1cc(NC(=O)CC2CCCC2)cc(C(=O)OC)c1,active: -63.7%
12,Cc1ccc2c(c1)COc1c3ccc(C(=O)NC(C)C)cc3nn1-2,inactive: 4.4%
13,CC1=Nc2cc(C(=O)NCC3CCCO3)ccc2Sc2ccc(C)cc21 (stereo not drawn),active: -71.8%
14,O=C(NCc1cccs1)c1cccn2c(=O)c3sccc3nc12,inconclusive: -50%
15,COc1cccc(C(=O)N(c2ccc(C)cc2)C2C=CS(=O)(=O)C2)c1 (stereo not drawn),active: -101%
16,Cc1ccc2cc(C(c3nnnn3Cc3ccccc3)N3CCN(c4ccccc4)CC3)c(=O)[nH]c2c1 (stereo not drawn),inactive: -33.4%
17,Cc1cc(C)c2c(c1)c(C)cc1nnc(SCC(=O)c3ccc(F)cc3)n12,inactive: -22.8%
18,CCCCC(=O)N1CCc2cc(OC)c(OC)cc2C1COc1ccc(OC)cc1 (stereo not drawn),active: -98.3%
19,CN(C)N1C(N)=C(C#N)C(c2ccc(Cl)cc2)C2=C1CCCC2=O (stereo not drawn),inactive: 11.5%
20,CN1/C(=C\C(=S)NC(=O)c2ccc([N+](=O)[O-])cc2)C(C)(C)c2ccccc21,inactive: -36.1%
21,COc1ccc(-c2n[nH]c(C)c2-c2cscn2)c(O)c1,inconclusive: 0%
22,O=C(Nc1ccccc1[N+](=O)[O-])c1cc(S(=O)(=O)N2CCOCC2)cs1,inconclusive: -41.6%

row,SMILES,"activity change, negative = inhibition"
1,COc1ccc(C(=O)CSc2nc(C(C)(C)C)nc3ccccc23)cc1,inconclusive: -53.7%
2,COc1ccc(C2=NS(=O)(=O)N(C)C(C(=O)Nc3ccc(C)cc3)=C2)cc1,inconclusive: -45.4%
3,CSc1ccccc1NC(=O)c1csc(C)c1,inactive: 14.3%
4,O=C(O)C/C(=C\c1cc(Cl)c2c(c1)OCO2)c1nc2ccccc2s1,inconclusive: -44.2%
5,Cc1nnc(-n2cccc2)s1,inactive: -39.7%
6,COc1ccc(NC2c3ccccc3C(=O)N2Cc2ccco2)cc1OC (stereo not drawn),inconclusive: -56.9%
7,CCc1cnc2c(c1SCC(=O)NCc1ccc(F)cc1)c(=O)n(C)c(=O)n2C,inconclusive: -51.9%
8,COc1cccc(CN(C)C(=O)CSc2nc3ccccc3[nH]2)c1OC,inconclusive: -42.3%
9,CC(C)c1ccc(/C=C/C(=O)NC(=S)Nc2ccc(CN3CCOCC3)cc2)cc1,inconclusive: -53.1%
10,CCCn1nnc(NC(=O)/C=C/c2cc(Br)ccc2OC)n1,inconclusive: -59.9%
11,CC(C)CN(C)Cc1c(C(=O)N2CCc3ccccc3C2)nc2ccc(Cl)cn12,inactive: -8.45%
12,CC1(C)CC(NC(=O)c2ccccc2C(=O)NC2CC(C)(C)NC(C)(C)C2)CC(C)(C)N1,inactive: 50.3%
13,O=C(Cc1c[nH]c2ccccc12)NCc1ccco1,inconclusive: -54.8%
14,COC(=O)C1(Cc2cc(-c3ccccc3)no2)CCN(C(=O)OC(C)(C)C)CC1,inconclusive: -42.2%
15,COCC(=O)N/N=C\c1ccc(OC/C=C/c2ccccc2)c(OC)c1,inactive: -0.512%
16,COc1ccc(C(=O)N2c3cc4c(cc3C(C)=CC2(C)C)OCO4)cc1,inconclusive: -57.4%
17,Cc1cccc(NC(=O)c2sc3nc4c(c(-c5ccco5)c3c2N)CCC4)c1,inconclusive: -42.5%
18,CC(c1ccco1)N(C(=O)CSc1ccc(Br)cc1)c1ccccn1 (stereo not drawn),inconclusive: -43.2%
19,Cc1c(C(=O)NCc2ccc(C(F)(F)F)cc2)sc(=O)n1Cc1ccc(S(=O)(=O)N(C)C)cc1,active: -72.7%
20,O=C(N/N=C1/CCCc2ccccc21)C(c1ccccc1)c1ccccc1,inconclusive: -44.7%
21,CCCn1c(=O)c2sccc2n2c(CCCC(=O)NCc3ccccc3)nnc12,inconclusive: -59.7%
22,COC(=O)c1ccc(/C=N\NC(=O)CC(=O)NCCc2ccccc2)cc1,inactive: -28.4%

row,SMILES,"activity change, negative = inhibition"
1,O=C(COc1ccccc1Cl)Nc1ccc2nc(SCC(=O)N3CCCC3)sc2c1,inconclusive: -56.2%
2,COC(=O)CCN1CCN(S(=O)(=O)c2cccc(Br)c2)CC1,inconclusive: -49.4%
3,Cc1ccc(C(NC(=O)NC(C)c2ccccc2)C(Cl)(Cl)Cl)cc1F (stereo not drawn),active: -100%
4,COc1ccc(-c2nc(C)sc2C)cc1,inconclusive: -42.3%
5,CSC1=NCCN1C(=O)COc1ccccc1,inconclusive: -48.6%
6,CCOCc1cc(CN2CCCC(CNC(=O)c3ccco3)C2)ccc1OC (stereo not drawn),inconclusive: -41.3%
7,CN1CCC(=C(c2ccccc2)c2ccc(Br)cc2)CC1,inconclusive: -41.8%
8,Cc1ccc2[nH]c3c(c2c1)CNCC3,inconclusive: -49.5%
9,CC1=C(C(=O)OC2CCCCCCC2)C(c2cc3c(cc2Br)OCO3)CC(=O)N1 (stereo not drawn),inconclusive: -47.2%
10,Cc1nc(N2CCCCC2)sc1C(=O)c1cccc([N+](=O)[O-])c1,active: -72.6%
11,Cc1ccc(-c2nn(-c3ccccc3)cc2CO)cc1,inactive: -7.74%
12,CCCCCCn1c(-c2ccco2)nc2oc3cc(OC)ccc3c(=O)c2c1=O,inconclusive: -58.6%
13,CCC(C)NCCCCOc1cc(C)cc(C(C)C)c1 (stereo not drawn),inconclusive: -47.8%
14,Cc1ccc(NC(=O)N2CCC(CN3CCCC3)CC2)c(C)c1,inactive: -37.8%
15,CCN(CCO)Cc1csc2ccc(C(C)(C)C)cc12,inconclusive: -46.1%
16,CCOC(=O)c1nn(-c2ccc(Br)cc2)cc1C(=O)c1cccc2ccccc12,inactive: -25.8%
17,CC(C(=O)NC(N)=O)N1C(=O)NC(c2ccccc2)(c2ccccc2)C1=O (stereo not drawn),inconclusive: -42.9%
18,O=C(CCCc1ccccc1)NC1CC(=O)N(c2ccc(F)cc2)C1 (stereo not drawn),inconclusive: -50%
19,CCn1c(-c2c[nH]c3ccccc23)n[nH]c1=S,inactive: 1.96%
20,COc1ccc(C=C2Cc3ccccc3C2=O)cc1,inconclusive: -47%
21,O=C(CCNC(=O)c1ccccc1Cl)Nc1nc(-c2ccccc2Cl)cs1,inactive: -29%
22,COc1ccc(-n2c(-c3ccco3)nc3c(cnn3-c3ccccc3Cl)c2=O)cc1,inconclusive: -48.7%

# 25 of the compounds above, as tab-separated lines.
row	SMILES	activity change, negative = inhibition
6	Cc1ccc(CNC(=O)Cn2c(-c3cccs3)cc3cc(Cl)ccc32)cc1	inactive: -15.6%
9	CCc1c(C)nc2c(-c3ccccc3)c(C)nn2c1Nc1ccc(NC(C)=O)cc1	active: -66.5%
10	CCc1ccccc1NC(=O)c1ccc(F)c(S(=O)(=O)N2CCN(c3ccccc3OC)CC2)c1	active: -62.4%
15	Cc1ccc(NC(=O)CC(c2ccc(F)cc2)N2Cc3ccccc3C2=O)cc1C (stereo not drawn)	inconclusive: -41.4%
18	COC(=O)C1=C(c2ccccc2OCc2ccccc2)C[C@@H]2CC[C@H]1N2C(=O)NCCOc1ccccc1Cl	active: -72.9%
6	Cc1ccc(CNC(=O)CCCCCNc2nc(=S)[nH]c3ccccc23)cc1	inconclusive: -40.9%
8	Cc1cc(C(=O)N/N=C/c2ccc(-c3ccccc3Cl)o2)n[nH]1	inconclusive: -50.2%
11	COC(=O)c1cc(NC(=O)CC2CCCC2)cc(C(=O)OC)c1	active: -63.7%
12	Cc1ccc2c(c1)COc1c3ccc(C(=O)NC(C)C)cc3nn1-2	inactive: 4.4%
14	O=C(NCc1cccs1)c1cccn2c(=O)c3sccc3nc12	inconclusive: -50%
17	Cc1cc(C)c2c(c1)c(C)cc1nnc(SCC(=O)c3ccc(F)cc3)n12	inactive: -22.8%
19	CN(C)N1C(N)=C(C#N)C(c2ccc(Cl)cc2)C2=C1CCCC2=O (stereo not drawn)	inactive: 11.5%
2	COc1ccc(C2=NS(=O)(=O)N(C)C(C(=O)Nc3ccc(C)cc3)=C2)cc1	inconclusive: -45.4%
4	O=C(O)C/C(=C\c1cc(Cl)c2c(c1)OCO2)c1nc2ccccc2s1	inconclusive: -44.2%
10	CCCn1nnc(NC(=O)/C=C/c2cc(Br)ccc2OC)n1	inconclusive: -59.9%
11	CC(C)CN(C)Cc1c(C(=O)N2CCc3ccccc3C2)nc2ccc(Cl)cn12	inactive: -8.45%
17	Cc1cccc(NC(=O)c2sc3nc4c(c(-c5ccco5)c3c2N)CCC4)c1	inconclusive: -42.5%
22	COC(=O)c1ccc(/C=N\NC(=O)CC(=O)NCCc2ccccc2)cc1	inactive: -28.4%
2	COC(=O)CCN1CCN(S(=O)(=O)c2cccc(Br)c2)CC1	inconclusive: -49.4%
4	COc1ccc(-c2nc(C)sc2C)cc1	inconclusive: -42.3%
8	Cc1ccc2[nH]c3c(c2c1)CNCC3	inconclusive: -49.5%
9	CC1=C(C(=O)OC2CCCCCCC2)C(c2cc3c(cc2Br)OCO3)CC(=O)N1 (stereo not drawn)	inconclusive: -47.2%
13	CCC(C)NCCCCOc1cc(C)cc(C(C)C)c1 (stereo not drawn)	inconclusive: -47.8%
15	CCN(CCO)Cc1csc2ccc(C(C)(C)C)cc12	inconclusive: -46.1%
20	COc1ccc(C=C2Cc3ccccc3C2=O)cc1	inconclusive: -47%
